{"source": "PubChem BioAssay AID1259274 | Sanger Institute – 2017", "aim": "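Kinases RKO cells need to grow, alone or with anchor drugs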 (primary screen)", "cell system": "human RKO colorectal cancer cells", "knock-down reagent": "siRNA pool against human genes", "conditions": "anchor drugs BYL719 at 1 µM, cetuximab at 5 µg/ml or trametinib at 10 nM; DMSO vehicle as the no-drug arm", "read-out": "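Viability of cells versus control pool 2 (non-targeting) averaged across replicates; knock-down-only robust z-score; for every anchor drug (BYL719, cetuximab, trametinib) a synergy score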", "scale": "viability z-score, siRNA alone: higher = more viable cells; low values mean essential gene; viability, siRNA alone, vehicle: higher = more viable cells", "rule for the call": "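Essential when the robust viability z-score with siRNA only falls below -3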", "calls": "active = essential when knocked down alone; inactive = no change alone", "note": "In all, the deposit lists 794 reagents; shown is a part drawn at random. In the full data, 11 (1.4%) got an active call. 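Calls rest on knock-down without drug only; synergy scores with anchor drugs were not used for the essential call.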 Unmarked entries are inactive. No viability above 1 is reported: the scale is capped. Not all columns of the deposit are shown. Not stated in the record: the amount of reagent, the time to read-out."}
{"gene symbol": "ACVR2A (GeneID 92)", "viability z-score, siRNA alone": 1.19, "viability, siRNA alone, vehicle (fraction of control)": 1}
{"gene symbol": "ERN1 (GeneID 2081)", "viability z-score, siRNA alone": -1.44, "viability, siRNA alone, vehicle (fraction of control)": 0.775}
{"gene symbol": "NME1 (GeneID 4830)", "viability z-score, siRNA alone": -0.484, "viability, siRNA alone, vehicle (fraction of control)": 0.857}
{"gene symbol": "ACVR1C (GeneID 130399)", "viability z-score, siRNA alone": 0.404, "viability, siRNA alone, vehicle (fraction of control)": 0.933}
{"gene symbol": "CDKN1C (GeneID 1028)", "viability z-score, siRNA alone": 0.887, "viability, siRNA alone, vehicle (fraction of control)": 0.974}
{"gene symbol": "CSNK2A2 (GeneID 1459)", "viability z-score, siRNA alone": -1.19, "viability, siRNA alone, vehicle (fraction of control)": 0.796}
{"gene symbol": "PSTK (GeneID 118672)", "viability z-score, siRNA alone": 0.1, "viability, siRNA alone, vehicle (fraction of control)": 0.907}
{"gene symbol": "MAP2K1 (GeneID 5604)", "viability z-score, siRNA alone": 0.776, "viability, siRNA alone, vehicle (fraction of control)": 0.964}
{"gene symbol": "APC (GeneID 324)", "viability z-score, siRNA alone": 0.6, "viability, siRNA alone, vehicle (fraction of control)": 0.949}
{"gene symbol": "CSNK1D (GeneID 1453)", "viability z-score, siRNA alone": 0.477, "viability, siRNA alone, vehicle (fraction of control)": 0.939}
{"gene symbol": "KRAS (GeneID 3845)", "viability z-score, siRNA alone": 1.19, "viability, siRNA alone, vehicle (fraction of control)": 1}
{"gene symbol": "RET (GeneID 5979)", "viability z-score, siRNA alone": -0.284, "viability, siRNA alone, vehicle (fraction of control)": 0.874}
{"gene symbol": "PTK2 (GeneID 5747)", "viability z-score, siRNA alone": 0.29, "viability, siRNA alone, vehicle (fraction of control)": 0.923}
{"gene symbol": "PANK4 (GeneID 55229)", "viability z-score, siRNA alone": -0.00632, "viability, siRNA alone, vehicle (fraction of control)": 0.897}
{"gene symbol": "GSK3B (GeneID 2932)", "viability z-score, siRNA alone": 0.405, "viability, siRNA alone, vehicle (fraction of control)": 0.933}
{"gene symbol": "PDGFRB (GeneID 5159)", "viability z-score, siRNA alone": -0.479, "viability, siRNA alone, vehicle (fraction of control)": 0.857}
{"gene symbol": "TP53BP1 (GeneID 7158)", "viability z-score, siRNA alone": 0.257, "viability, siRNA alone, vehicle (fraction of control)": 0.92}
{"gene symbol": "TRPM6 (GeneID 140803)", "viability z-score, siRNA alone": 0.402, "viability, siRNA alone, vehicle (fraction of control)": 0.932}
{"gene symbol": "FGFR2 (GeneID 2263)", "viability z-score, siRNA alone": -0.928, "viability, siRNA alone, vehicle (fraction of control)": 0.818}

2 entries from above, sorted by “viability z-score, siRNA alone”, low to high:
{"gene symbol": "PANK4 (GeneID 55229)", "viability z-score, siRNA alone": -0.00632, "viability, siRNA alone, vehicle (fraction of control)": 0.897}
{"gene symbol": "PTK2 (GeneID 5747)", "viability z-score, siRNA alone": 0.29, "viability, siRNA alone, vehicle (fraction of control)": 0.923}

The results go on.
{"gene symbol": "CHKB (GeneID 1120)", "viability z-score, siRNA alone": 0.477, "viability, siRNA alone, vehicle (fraction of control)": 0.939}
{"gene symbol": "CSK (GeneID 1445)", "viability z-score, siRNA alone": 0.858, "viability, siRNA alone, vehicle (fraction of control)": 0.971}
{"gene symbol": "EPHA6 (GeneID 285220)", "viability z-score, siRNA alone": -1.04, "viability, siRNA alone, vehicle (fraction of control)": 0.809}
{"gene symbol": "PKIA (GeneID 5569)", "viability z-score, siRNA alone": -1.89, "viability, siRNA alone, vehicle (fraction of control)": 0.736}
{"gene symbol": "NR2F2 (GeneID 7026)", "viability z-score, siRNA alone": -0.799, "viability, siRNA alone, vehicle (fraction of control)": 0.83}
{"gene symbol": "MAP3K10 (GeneID 4294)", "viability z-score, siRNA alone": 1.19, "viability, siRNA alone, vehicle (fraction of control)": 1}
{"gene symbol": "NUCKS1 (GeneID 64710)", "viability z-score, siRNA alone": 0.139, "viability, siRNA alone, vehicle (fraction of control)": 0.91}
{"gene symbol": "FN3K (GeneID 64122)", "viability z-score, siRNA alone": -0.0098, "viability, siRNA alone, vehicle (fraction of control)": 0.897}
{"gene symbol": "FN1 (GeneID 2335)", "viability z-score, siRNA alone": 0.0762, "viability, siRNA alone, vehicle (fraction of control)": 0.905}
{"gene symbol": "RPS6KA3 (GeneID 6197)", "viability z-score, siRNA alone": 0.174, "viability, siRNA alone, vehicle (fraction of control)": 0.913}
{"gene symbol": "ADK (GeneID 132)", "viability z-score, siRNA alone": 0.235, "viability, siRNA alone, vehicle (fraction of control)": 0.918}
{"gene symbol": "NADK (GeneID 65220)", "viability z-score, siRNA alone": -0.506, "viability, siRNA alone, vehicle (fraction of control)": 0.855}
{"gene symbol": "TPK1 (GeneID 27010)", "viability z-score, siRNA alone": -0.966, "viability, siRNA alone, vehicle (fraction of control)": 0.815}
{"gene symbol": "AURKC (GeneID 6795)", "viability z-score, siRNA alone": 0.693, "viability, siRNA alone, vehicle (fraction of control)": 0.957}
{"gene symbol": "BMPR2 (GeneID 659)", "viability z-score, siRNA alone": -0.241, "viability, siRNA alone, vehicle (fraction of control)": 0.877}
{"gene symbol": "PIK3C2A (GeneID 5286)", "viability z-score, siRNA alone": -2.04, "viability, siRNA alone, vehicle (fraction of control)": 0.723}
{"gene symbol": "ITPKB (GeneID 3707)", "viability z-score, siRNA alone": 1.19, "viability, siRNA alone, vehicle (fraction of control)": 1}
